Results taken from the supplement of paper PMC4604168 (melanoma cell lines).
Some of the results follow. Single values are uncertain, as repeats are few or missing.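 Cells were imaged in 1,536-well plates, and nuclei stained with an antibody against cleaved PARP were counted against all DNA-stained nuclei to give the apoptosis fraction. Screening doses were chosen to leave most cells alive, and resting and induced cleaved-PARP levels differ strongly between cell lines.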

How the values were obtained:
Assay in all cases: cleaved PARP positive nuclei fraction relative to DMSO control; melanoma cells; higher = more apoptosis
Conditions in all cases: library dose: low library concentration; 72 h
WM115 = system: WM115
WM1716 = system: WM1716
WM1745 = system: WM1745
WM3526 = system: WM3526
WM3619 = system: WM3619
WM451Lu = system: WM451Lu

Structure (SMILES) | cleaved PARP positive nuclei fraction (WM115) | cleaved PARP positive nuclei fraction (WM1716) | cleaved PARP positive nuclei fraction (WM1745) | cleaved PARP positive nuclei fraction (WM3526) | cleaved PARP positive nuclei fraction (WM3619) | cleaved PARP positive nuclei fraction (WM451Lu)
COc1cc2ncnc(Nc3ccc(Oc4ccccc4)cc3)c2cc1OC + Cn1cc(/C=C2\C(=O)Nc3cccnc32)c2ccccc21 [GW441756] (first compound 2 µM, partner dose 0.4 µM) | 134% | 86.6% | 274% | 96.6% | 79.9% | 136%
O=C(O)c1ccc(-c2c[nH]c3ncc(-c4ccccc4)cc23)cc1C1CCCC1 + CCc1ccc(CCOc2ccc(CC3SC(=O)NC3=O)cc2)nc1 [pioglitazone] (first compound 0.16 µM, partner dose 2 µM) | 140% | 78.2% | 140% | 78.2% | 83.6% | 474%
COc1cc2c(Oc3ccc4[nH]c(C)cc4c3F)ncnc2cc1OCCCN1CCCC1 [cediranib] + Cn1cc(/C=C2\C(=O)Nc3cccnc32)c2ccccc21 [GW441756] (first compound 0.4 µM, partner dose 0.4 µM) | 48.3% | 44.1% | 115% | 75.3% | 63.7% | 52.4%
c1cc(-c2cnn3cc(-c4ccc(OCCN5CCCCC5)cc4)cnc23)ccn1 [Dorsomorphin] + Cn1cc(/C=C2\C(=O)Nc3cccnc32)c2ccccc21 [GW441756] (first compound 0.4 µM, partner dose 0.4 µM) | 74.1% | 68% | 124% | 63% | 74.1% | 204%
Cc1cc([N+](=O)[O-])ccc1NS(=O)(=O)c1cc(Cl)ccc1Cl + Oc1nc(-c2ccc(C(F)(F)F)cc2)nc2c1CSCC2 [XAV939] (first compound 1 µM, partner dose 2 µM) | 120% | 183% | 214% | 328% | 76% | 55.9%
COc1ccc2c(c1)CCC1C2CCC2(C)C(NCCCCCCN3C(=O)C=CC3=O)CCC12 (stereo not drawn) + c1cc(-c2cnn3cc(-c4ccc(OCCN5CCCCC5)cc4)cnc23)ccn1 [Dorsomorphin] (first compound 0.4 µM, partner dose 0.4 µM) | 392% | 128% | 115% | 72.7% | 77.2% | 130%
CN(NC(=O)CC(=O)NN(C)C(=S)c1ccccc1)C(=S)c1ccccc1 + O=C(O)C(=O)Nc1sc2c(c1C(=O)O)CCNC2 [TCS401] (first compound 0.006 µM, partner dose 1.66667 µM) | 31.6% | 102% | 156% | 57.6% | 145% | 28%
CN(C)S(=O)(=O)c1ccc2c(c1)/C(=C/c1cc3c([nH]1)CCCC3)C(=O)N2 + COc1ccc(-c2ccc3c(N4CCOCC4)nc(N4C[C@@H](C)O[C@@H](C)C4)nc3n2)cc1CO [KU0063794] (first compound 0.4 µM, partner dose 0.02 µM) | 101% | 149% | 112% | 72.8% | 99.1% | 55.3%
O=C(O)c1ccc(-c2c[nH]c3ncc(-c4ccccc4)cc23)cc1C1CCCC1 + CCN(CC)CCCCNc1ncc2cc(-c3cc(OC)cc(OC)c3)c(NC(=O)NC(C)(C)C)nc2n1 [PD173074] (first compound 0.16 µM, partner dose 0.1 µM) | 96.9% | 164% | 103% | 156% | 83.2% | 64.9%
COc1cc2c(Oc3ccc4[nH]c(C)cc4c3F)ncnc2cc1OCCCN1CCCC1 [cediranib] + c1cc(-c2cnn3cc(-c4ccc(OCCN5CCCCC5)cc4)cnc23)ccn1 [Dorsomorphin] (first compound 0.4 µM, partner dose 0.4 µM) | 71.7% | 68.3% | 132% | 227% | 58.3% | 74.6%
COc1cc2c(Oc3ccc4[nH]c(C)cc4c3F)ncnc2cc1OCCCN1CCCC1 [cediranib] + Oc1nc(-c2ccc(C(F)(F)F)cc2)nc2c1CSCC2 [XAV939] (first compound 0.4 µM, partner dose 2 µM) | 55% | 194% | 123% | 64.5% | 78.6% | 108%
O=C(O)c1ccc(-c2c[nH]c3ncc(-c4ccccc4)cc23)cc1C1CCCC1 + O=C(O)C(=O)Nc1sc2c(c1C(=O)O)CCNC2 [TCS401] (first compound 0.16 µM, partner dose 1.66667 µM) | 94.1% | 66.3% | 105% | 143% | 94% | 84.4%
COc1ccc2c(c1)CCC1C2CCC2(C)C(NCCCCCCN3C(=O)C=CC3=O)CCC12 (stereo not drawn) + O=C(O)C(=O)Nc1sc2c(c1C(=O)O)CCNC2 [TCS401] (first compound 0.4 µM, partner dose 1.66667 µM) | 163% | 183% | 122% | 37.4% | 122% | 65.2%
NCC(=O)Nc1ccc(-n2nc(C(F)(F)F)cc2-c2ccc3c(ccc4ccccc43)c2)cc1 + CC(C)CCN1c2nc(Nc3cc(F)c(O)c(F)c3)ncc2N(C)C(=O)C1C [BID1870] (first compound 1 µM, partner dose 0.2 µM) | 32.9% | 264% | 107% | 192% | 93.9% | 142%
COc1ccc(COc2ccc(Cc3cnc(N)nc3N)cc2OC)cc1 + Cc1cc([N+](=O)[O-])ccc1NS(=O)(=O)c1cc(Cl)ccc1Cl [FH535] (first compound 1 µM, partner dose 1 µM) | 160% | 119% | 155% | 135% | 67.8% | 55.6%
Cn1cc(/C=C2\C(=O)Nc3cccnc32)c2ccccc21 + O=c1cc(-c2cccc3c2Sc2ccccc2S3)oc(N2CCOCC2)c1 [KU55933] (first compound 0.4 µM, partner dose 1 µM) | 65.6% | 56.3% | 103% | 32.6% | 88.2% | 548%
N#Cc1c(O)c2c(-c3ccc(-c4ccccc4O)cc3)csc2[nH]c1=O + COC(=O)c1sccc1S(=O)(=O)Nc1ccc(Nc2ccccc2)cc1OC [GSK0660] (first compound 2 µM, partner dose 1 µM) | 84.6% | 47.7% | 93.4% | 75.1% | 149% | 111%
N#Cc1c(O)c2c(-c3ccc(-c4ccccc4O)cc3)csc2[nH]c1=O + Cn1cc(/C=C2\C(=O)Nc3cccnc32)c2ccccc21 [GW441756] (first compound 2 µM, partner dose 0.4 µM) | 70.9% | 146% | 102% | 74% | 65.8% | 73.7%
CN(NC(=O)CC(=O)NN(C)C(=S)c1ccccc1)C(=S)c1ccccc1 + Oc1cc(-c2nc(-c3ccccc3)[nH]c2-c2ccncc2)ccc1Cl [L779450] (first compound 0.006 µM, partner dose 0.2 µM) | 177% | 93.5% | 523% | 80.2% | 121% | 53%
COC(=O)c1sccc1S(=O)(=O)Nc1ccc(Nc2ccccc2)cc1OC + Cn1cc(/C=C2\C(=O)Nc3cccnc32)c2ccccc21 [GW441756] (first compound 1 µM, partner dose 0.4 µM) | 98.2% | 97.5% | 120% | 93.2% | 83.5% | 110%
Cc1cc([N+](=O)[O-])ccc1NS(=O)(=O)c1cc(Cl)ccc1Cl + CCCCCCCCCCCC1=C(O)C(=O)C=C(O)C1=O [Embelin] (first compound 1 µM, partner dose 1.2 µM) | 50.1% | 119% | 100% | 69.6% | 82.3% | 116%
CCc1ccc(CCOc2ccc(CC3SC(=O)NC3=O)cc2)nc1 (stereo not drawn) [pioglitazone] + COc1ccc(COc2ccc(Cc3cnc(N)nc3N)cc2OC)cc1 [GW2580] (first compound 2 µM, partner dose 1 µM) | 44.5% | 92.9% | 91% | 142% | 80.2% | 123%
N#Cc1c(O)c2c(-c3ccc(-c4ccccc4O)cc3)csc2[nH]c1=O + O=C(O)C(=O)Nc1sc2c(c1C(=O)O)CCNC2 [TCS401] (first compound 2 µM, partner dose 1.66667 µM) | 87.3% | 99% | 95.6% | 90.6% | 75.8% | 115%
NCC(=O)Nc1ccc(-n2nc(C(F)(F)F)cc2-c2ccc3c(ccc4ccccc43)c2)cc1 + COc1cc2ncnc(Nc3ccc(Oc4ccccc4)cc3)c2cc1OC [SrcI1] (first compound 1 µM, partner dose 2 µM) | 56.1% | 391% | 101% | 362% | 95.3% | 242%
COc1cc2c(Oc3ccc4[nH]c(C)cc4c3F)ncnc2cc1OCCCN1CCCC1 [cediranib] + Cc1cc([N+](=O)[O-])ccc1NS(=O)(=O)c1cc(Cl)ccc1Cl [FH535] (first compound 0.4 µM, partner dose 1 µM) | 127% | 140% | 99.6% | 66.9% | 78.8% | 64.7%
O=S(=O)(c1ccccc1)N(CC(F)(F)F)c1ccc(C(O)(C(F)(F)F)C(F)(F)F)cc1 + CCCCCCCCCCCC1=C(O)C(=O)C=C(O)C1=O [Embelin] (first compound 1.4 µM, partner dose 1.2 µM) | 105% | 74.6% | 111% | 86.1% | 84.2% | 245%
CN(NC(=O)CC(=O)NN(C)C(=S)c1ccccc1)C(=S)c1ccccc1 + O=C1NC(=O)/C(=C/c2ccc(-c3ccc(F)cc3O)o2)S1 [AS252424] (first compound 0.006 µM, partner dose 1 µM) | 113% | 137% | 110% | 70.9% | 163% | 110%
O=C(Nc1ccccc1)c1cc([N+](=O)[O-])ccc1Cl + COc1ccc(-c2ccc3c(N4CCOCC4)nc(N4C[C@@H](C)O[C@@H](C)C4)nc3n2)cc1CO [KU0063794] (first compound 2 µM, partner dose 0.02 µM) | 92% | 90.2% | 119% | 196% | 101% | 60.5%

Some entries already given with just cleaved PARP positive nuclei fraction (WM1745) and cleaved PARP positive nuclei fraction (WM3619).

| Structure (SMILES) | cleaved PARP positive nuclei fraction (WM1745) | cleaved PARP positive nuclei fraction (WM3619) |
| --- | --- | --- |
| CN(NC(=O)CC(=O)NN(C)C(=S)c1ccccc1)C(=S)c1ccccc1 + Oc1cc(-c2nc(-c3ccccc3)[nH]c2-c2ccncc2)ccc1Cl [L779450] (first compound 0.006 µM, partner dose 0.2 µM) | 523% | 121% |
| COC(=O)c1sccc1S(=O)(=O)Nc1ccc(Nc2ccccc2)cc1OC + Cn1cc(/C=C2\C(=O)Nc3cccnc32)c2ccccc21 [GW441756] (first compound 1 µM, partner dose 0.4 µM) | 120% | 83.5% |
